Measurements as given in the supplement of paper PMC8728848.
The other results are listed elsewhere or left out.

Tests used:
Experiment in all cases: glycan array binding signal (z-score within array); higher = stronger binding
Settings in all cases: glycan notation: IUPAC condensed, linker removed
[1] = target: Gal(b1-4)GlcNAc(b1-2)[Gal(b1-4)GlcNAc(b1-6)]Man(a1-6)[GlcNAc(b1-4)][Gal(b1-4)GlcNAc(b1-2)Man(a1-3)]Man(b1-4)GlcNAc(b1-4)GlcNAc
Procedure, shortened: (§1)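 Glycan array data were curated from 3228 arrays in the Consortium for Functional Glycomics database and kept only where the protein sequence was available. Glycan names were converted to IUPAC-condensed notation, and columns mapping to the same glycan were averaged. The binding signal is a within-array Z-score, averaged across arrays of the same protein sequence at different concentrations or buffers and across linkers. Negative Z-scores can be read as non-binding.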

[2] = target: Gal(b1-4)GlcNAc(b1-2)[Gal(b1-4)GlcNAc(b1-6)]Man(a1-6)[GlcNAc(b1-4)][Gal(b1-4)GlcNAc(b1-2)[Gal(b1-4)GlcNAc(b1-4)]Man(a1-3)]Man(b1-4)GlcNAc(b1-4)[Fuc(a1-6)]GlcNAc
Procedure, shortened: as §1

[3] = target: Gal(b1-4)GlcNAc(b1-3)Gal(b1-3)GalNAc
Procedure, shortened: as §1

[4] = target: Gal(b1-4)GlcNAc(b1-3)Gal(b1-3)GlcNAc
Procedure, shortened: as §1

[5] = target: Gal(b1-4)GlcNAc(b1-3)Gal(b1-4)Glc
Procedure, shortened: as §1

[6] = target: Gal(b1-4)GlcNAc(b1-3)Gal(b1-4)GlcNAc
Procedure, shortened: as §1

[7] = target: Gal(b1-4)GlcNAc(b1-3)Gal(b1-4)GlcNAc(b1-2)Man(a1-3)[Gal(b1-4)GlcNAc(b1-3)Gal(b1-4)GlcNAc(b1-2)Man(a1-6)]Man(b1-4)GlcNAc(b1-4)GlcNAc
Procedure, shortened: as §1

[8] = target: Gal(b1-4)GlcNAc(b1-3)Gal(b1-4)GlcNAc(b1-2)Man(a1-3)[Gal(b1-4)GlcNAc(b1-3)Gal(b1-4)GlcNAc(b1-2)Man(a1-6)]Man(b1-4)GlcNAc(b1-4)[Fuc(a1-6)]GlcNAc
Procedure, shortened: as §1

[9] = target: Gal(b1-4)GlcNAc(b1-3)Gal(b1-4)GlcNAc(b1-2)[Gal(b1-4)GlcNAc(b1-3)Gal(b1-4)GlcNAc(b1-6)]Man(a1-6)[Gal(b1-4)GlcNAc(b1-3)Gal(b1-4)GlcNAc(b1-2)Man(a1-3)]Man(b1-4)GlcNAc(b1-4)GlcNAc
Procedure, shortened: as §1

[10] = target: Gal(b1-4)GlcNAc(b1-3)Gal(b1-4)GlcNAc(b1-2)[Gal(b1-4)GlcNAc(b1-3)Gal(b1-4)GlcNAc(b1-6)]Man(a1-6)[Gal(b1-4)GlcNAc(b1-3)Gal(b1-4)GlcNAc(b1-2)Man(a1-3)]Man(b1-4)GlcNAc(b1-4)[Fuc(a1-6)]GlcNAc
Procedure, shortened: as §1

[11] = target: Gal(b1-4)GlcNAc(b1-3)Gal(b1-4)GlcNAc(b1-3)Gal(b1-4)GlcNAc
Procedure, shortened: as §1

[12] = target: Gal(b1-4)GlcNAc(b1-3)Gal(b1-4)GlcNAc(b1-3)Gal(b1-4)GlcNAc(b1-2)Man(a1-3)[Gal(b1-4)GlcNAc(b1-3)Gal(b1-4)GlcNAc(b1-3)Gal(b1-4)GlcNAc(b1-2)Man(a1-6)]Man(b1-4)GlcNAc(b1-4)GlcNAc
Procedure, shortened: as §1

[13] = target: Gal(b1-4)GlcNAc(b1-3)Gal(b1-4)GlcNAc(b1-3)Gal(b1-4)GlcNAc(b1-2)Man(a1-3)[Gal(b1-4)GlcNAc(b1-3)Gal(b1-4)GlcNAc(b1-3)Gal(b1-4)GlcNAc(b1-2)Man(a1-6)]Man(b1-4)GlcNAc(b1-4)[Fuc(a1-6)]GlcNAc
Procedure, shortened: as §1

[14] = target: Gal(b1-4)GlcNAc(b1-3)Gal(b1-4)GlcNAc(b1-3)Gal(b1-4)GlcNAc(b1-2)[Gal(b1-4)GlcNAc(b1-3)Gal(b1-4)GlcNAc(b1-3)Gal(b1-4)GlcNAc(b1-6)]Man(a1-6)[Gal(b1-4)GlcNAc(b1-3)Gal(b1-4)GlcNAc(b1-3)Gal(b1-4)GlcNAc(b1-2)Man(a1-3)]Man(b1-4)GlcNAc(b1-4)[Fuc(a1-6)]GlcNAc
Procedure, shortened: as §1

[15] = target: Gal(b1-4)GlcNAc(b1-3)Gal(b1-4)GlcNAc(b1-3)Gal(b1-4)GlcNAc(b1-3)Gal(b1-4)GlcNAc(b1-2)Man(a1-3)[Gal(b1-4)GlcNAc(b1-3)Gal(b1-4)GlcNAc(b1-3)Gal(b1-4)GlcNAc(b1-3)Gal(b1-4)GlcNAc(b1-2)Man(a1-6)]Man(b1-4)GlcNAc(b1-4)GlcNAc
Procedure, shortened: as §1

[16] = target: Gal(b1-4)GlcNAc(b1-3)Gal(b1-4)GlcNAc(b1-3)Gal(b1-4)GlcNAc(b1-3)Gal(b1-4)GlcNAc(b1-2)Man(a1-3)[Gal(b1-4)GlcNAc(b1-3)Gal(b1-4)GlcNAc(b1-3)Gal(b1-4)GlcNAc(b1-3)Gal(b1-4)GlcNAc(b1-2)Man(a1-6)]Man(b1-4)GlcNAc(b1-4)[Fuc(a1-6)]GlcNAc
Procedure, shortened: as §1

[17] = target: Gal(b1-4)GlcNAc(b1-3)Gal(b1-4)GlcNAc(b1-3)Gal(b1-4)GlcNAc(b1-3)Gal(b1-4)GlcNAc(b1-2)[Gal(b1-4)GlcNAc(b1-3)Gal(b1-4)GlcNAc(b1-3)Gal(b1-4)GlcNAc(b1-3)Gal(b1-4)GlcNAc(b1-6)]Man(a1-6)[Gal(b1-4)GlcNAc(b1-3)Gal(b1-4)GlcNAc(b1-3)Gal(b1-4)GlcNAc(b1-3)Gal(b1-4)GlcNAc(b1-2)Man(a1-3)]Man(b1-4)GlcNAc(b1-4)[Fuc(a1-6)]GlcNAc
Procedure, shortened: as §1

[18] = target: Gal(b1-4)GlcNAc(b1-3)Gal(b1-4)GlcNAc(b1-3)Gal(b1-4)GlcNAc(b1-3)Gal(b1-4)GlcNAc(b1-3)Gal(b1-4)GlcNAc(b1-2)Man(a1-3)[Gal(b1-4)GlcNAc(b1-3)Gal(b1-4)GlcNAc(b1-3)Gal(b1-4)GlcNAc(b1-3)Gal(b1-4)GlcNAc(b1-3)Gal(b1-4)GlcNAc(b1-2)Man(a1-6)]Man(b1-4)GlcNAc(b1-4)GlcNAc
Procedure, shortened: as §1

[19] = target: Gal(b1-4)GlcNAc(b1-3)Gal(b1-4)GlcNAc(b1-3)Gal(b1-4)GlcNAc(b1-3)Gal(b1-4)GlcNAc(b1-3)Gal(b1-4)GlcNAc(b1-2)Man(a1-3)[Gal(b1-4)GlcNAc(b1-3)Gal(b1-4)GlcNAc(b1-3)Gal(b1-4)GlcNAc(b1-3)Gal(b1-4)GlcNAc(b1-3)Gal(b1-4)GlcNAc(b1-2)Man(a1-6)]Man(b1-4)GlcNAc(b1-4)[Fuc(a1-6)]GlcNAc
Procedure, shortened: as §1

B1: Nc3LysM-2 (protein)
chain: AHVLQARQSVSCDFATAANTGDTCASFAAAWGITEAAFAKLNPGVSCPGNLIAGSEYCVIGTVSTGAPTTTKAATTSTTPPTTTTTTKATTLSTSTTSVSPTGPSPQMPSITSTCNKFYQVQSGDGCWSIEQAQGVSASDFMAWNKAVDAQCDNLWLGYYVCVGVKGGSSPPPTTTTKPASSSAPTPQMPNTVSNCKKFHKVVSGDGCWAIEQAAGISASDFAKWNPYVDAACDNLWLGYYVCIGV
B1 was tested. Which “glycan array binding signal (z-score)” value [1] did it give?
Its value is -0.615.

What about the “glycan array binding signal (z-score)” value [2] of the same binder?
Its value is -0.348.

And the “glycan array binding signal (z-score)” value [3]?
Its value is -1.18.

And the “glycan array binding signal (z-score)” value [4]?
Its value is 0.13.

What about the “glycan array binding signal (z-score)” value [5] of the same binder?
The value was 0.628.

What about the “glycan array binding signal (z-score)” value [6] of the same binder?
Its value is -0.972.

And the “glycan array binding signal (z-score)” value [7]?
Its value is 0.414.

What about the “glycan array binding signal (z-score)” value [8] of the same binder?
The value was 1.14.

What about the “glycan array binding signal (z-score)” value [9] of the same binder?
The value was -0.122.

And the “glycan array binding signal (z-score)” value [10]?
Its value is 1.05.

And the “glycan array binding signal (z-score)” value [11]?
Its value is 0.011.

What about the “glycan array binding signal (z-score)” value [12] of the same binder?
The value was 1.25.

And the “glycan array binding signal (z-score)” value [13]?
The value was 2.69.

What about the “glycan array binding signal (z-score)” value [14] of the same binder?
Its value is 5.8.

And the “glycan array binding signal (z-score)” value [15]?
Its value is 1.

And the “glycan array binding signal (z-score)” value [16]?
Its value is 1.77.

And the “glycan array binding signal (z-score)” value [17]?
The value was 0.832.

And the “glycan array binding signal (z-score)” value [18]?
The value was -0.233.

What about the “glycan array binding signal (z-score)” value [19] of the same binder?
Its value is 0.558.
